# Reference: the supplement of paper PMC8426693
# The list shows a part of the results.
# System: SARS-CoV-2 5_SL5b+c RNA
# Assay: NMR binding call after quantification (hit when 2 of 3 NMR criteria are met) (binary (1 = binding, 0 = not binding)); higher = binding
# Details: RNA concentration 10 µM; fragment concentration 200 µM; 293 K
row,Compound,NMR binding call
1,CCc1noc(C)c1C(=O)Nc1cc(C)on1,0
2,Cc1cc(C(=O)Nc2ccc3[nH]ccc3c2)no1,0
3,CC(=O)NCc1cn[nH]c1,0
4,Oc1ccc(CN2CCCC2)c2cccnc12,0
5,Cc1ccccc1OCC(=O)Nc1ncccn1,0
6,O=C(Nc1ccc(-n2cnnn2)cc1)C1CCC1,0
7,CS(=O)(=O)Nc1ccc(CN)cc1.Cl,0
8,CC(C)C(=O)NCc1nc2ccccc2[nH]1,0
9,CC(=O)Nc1ccc2[nH]c(=O)[nH]c2c1,0
10,CNC(=O)c1nc2ccccc2c(=O)[nH]1,0
11,CC1CCC(NC2CCC(O)CC2)CC1 (centres undefined),0
12,Cl.Cl.O=C(c1ccncc1)N1CCNCC1,0
13,COCC(=O)Nc1nc(-c2ccccc2)cs1,0
14,Cc1ccc(N2CCN(C(N)=O)CC2)cc1,0
15,O=C(NCCc1ccc(O)cc1)c1ccccn1,0
16,O=C1CN(C(=O)COc2ccccc2)CCN1,0

row,Compound,NMR binding call
1,NCc1ccc(-c2cccs2)cc1,0
2,CC1CCCN(C(=O)CO)C1 (centres undefined),0
3,O=C(NO)c1ccc2ccccc2n1,0
4,COC(=O)C1CCN(CC(N)=O)CC1,0
5,CN(C)Cc1nc(C2(N)CCCC2)no1,0
6,CS(=O)(=O)c1nccn1Cc1cscn1,0
7,CC(CO)(CO)NC(=O)Nc1ccccc1,0
8,CN1CCN(c2ccc(C#N)cc2)CC1,0
9,CC(=O)c1ccc(OC(F)F)cc1,0
10,Cc1ccc(OCC(=O)Nc2cc(C)on2)cc1,0
11,Cl.NC1CCN(S(=O)(=O)c2ccccc2)C1 (centres undefined),0
12,Cc1cc(CN(C)C(=O)NC2CC2)no1,0
13,CC(C)NCc1ccc(N(C)C)cc1,0
14,CC(=O)Nc1ccc(NC(=O)C2CC2(C)C)cc1 (centres undefined),0
15,CCOC(=O)c1sc(N(C)C(C)=O)nc1C,0
16,OCc1ccc(-n2cnc3ccccc32)cc1,0

# System: SARS-CoV-2 5_SL5stem RNA
# Assay: as above
# Details: RNA concentration 10 µM; fragment concentration 200 µM; 293 K
row,Compound,NMR binding call
1,CCc1noc(C)c1C(=O)Nc1cc(C)on1,0
2,Cn1cc(C(N)=O)c(C(F)F)n1,0
3,Cc1cc(C(=O)Nc2ccc3[nH]ccc3c2)no1,0
4,CC(=O)NCc1cn[nH]c1,0
5,Oc1ccc(CN2CCCC2)c2cccnc12,0
6,Cc1ccccc1OCC(=O)Nc1ncccn1,0
7,CS(=O)(=O)Nc1ccc(CN)cc1.Cl,0
8,CC(C)C(=O)NCc1nc2ccccc2[nH]1,0
9,CNC(=O)Nc1nc2ccc(OC)cc2s1,0
10,CC(=O)Nc1ccc2[nH]c(=O)[nH]c2c1,0
11,CNC(=O)c1nc2ccccc2c(=O)[nH]1,0
12,c1ccc(CNC2CCNC2)cc1 (centres undefined),0
13,CC1CCC(NC2CCC(O)CC2)CC1 (centres undefined),0
14,Cc1cccc(CN2CCOCC2)c1,0
15,Cl.Cl.O=C(c1ccncc1)N1CCNCC1,0
16,COCC(=O)Nc1nc(-c2ccccc2)cs1,0

row,Compound,NMR binding call
1,O=C(NCCc1ccc(O)cc1)c1ccccn1,0
2,O=C1CN(C(=O)COc2ccccc2)CCN1,0
3,COc1ccc(CN2CCOCC2)cc1OC,0
4,NCc1ccc(-c2cccs2)cc1,0
5,CC1CCCN(C(=O)CO)C1 (centres undefined),0
6,O=C(NO)c1ccc2ccccc2n1,1
7,CN(C)Cc1nc(C2(N)CCCC2)no1,0
8,Cc1ccc(NC(=O)C2CCCO2)nc1 (centres undefined),0
9,CC(CO)(CO)NC(=O)Nc1ccccc1,0
10,CN1CCN(c2ccc(C#N)cc2)CC1,0
11,Cl.NC1CCN(S(=O)(=O)c2ccccc2)C1 (centres undefined),0
12,Cc1cc(CN(C)C(=O)NC2CC2)no1,0
13,CC(=O)Nc1ccc(NC(=O)C2CC2(C)C)cc1 (centres undefined),0
14,Cc1cc(N2CCNCC2)nc(C)n1,0
15,CC(=O)Nc1cc(C)n[nH]1,0
16,OCc1ccc(-n2cnc3ccccc32)cc1,0
